# Screening data, single-dose tests

The values are deposited in ChEMBL (CHEMBL3988442, “University of Dundee, Small-Polar-MMV Screening Library” (2021)).

Mtb glucose medium: 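Phenotypic screen: M. tuberculosis growth, glucose 7H9 medium, 3 days; the read-out is not stated. Tested at 50 µM. Direction is inferred from retests: higher values go with more growth inhibition. Of about 69,000 compounds tested this way, about 760 (1.1%) reached 50% or more in at least one test.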
Mtb cholesterol medium: 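Growth of Mycobacterium tuberculosis over 4 days (cholesterol / DPPC medium with tyloxapol); the read-out is not stated. Concentration: 50 µM. The record gives no direction; compounds that gave an IC50 in retests scored well above the rest, so higher reads as more growth inhibition. Of about 69,000 compounds tested this way, about 370 (0.54%) reached 50% or more in at least one test.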

Each number is a percent effect as filed.
The record does not define 0% and 100%; most values in the screen are far below 50% and negative numbers occur (in some assays of this library far below -100).
The compounds are a random part of those screened.
Two or more numbers in one place are separate tests of the same structure; such repeats can differ widely.

For Cc1cccc(-c2nc(CNC3CCc4ncnn4C3)no2)c1 (stereo not given) the result was Mtb glucose medium: -13.06%; Mtb cholesterol medium: 1.976%.
For C[C@H]1CN(c2ccccn2)C[C@@]12CCN(c1cccnc1)C2=O.O=C(O)C(F)(F)F.O=C(O)C(F)(F)F the result was Mtb glucose medium: -30.49%; Mtb cholesterol medium: -21.62%.
For CNc1cc(C2CN(C(=O)c3ccn(C)n3)CCO2)nc(C)n1 (stereo not given) the result was Mtb glucose medium: -6.316%; Mtb cholesterol medium: -25.22%.
For O=C(CCc1ccco1)NS(=O)(=O)N1CCOc2ccccc21 the result was Mtb glucose medium: -0.6062% and -1.454%; Mtb cholesterol medium: 10.34%.
For CCOc1ccc(C(=O)Nc2c(C)nc3cccc(C)n3c2=O)cc1 the result was Mtb glucose medium: 16.13%; Mtb cholesterol medium: 4.031%.
For CSCc1cc(C(=O)NC2(C#N)CC2)ccc1F the result was Mtb glucose medium: 20.29%; Mtb cholesterol medium: -6.792%.
For O=C(NCc1cc(Cl)ccn1)NCc1ccco1 the result was Mtb glucose medium: -3.028%; Mtb cholesterol medium: -5.83%.
For O=C(NCc1ccncc1)N(Cc1ccccc1F)C1CC1 the result was Mtb glucose medium: 4.969%; Mtb cholesterol medium: 0.4261%.
For O=c1ccncn1Cc1csc(C2CC2)n1 the result was Mtb glucose medium: 13.24%; Mtb cholesterol medium: 1.459%.
For Cc1cc(CC(=O)N(CC2CN(C)CCO2)c2nccs2)no1 (stereo not given) the result was Mtb glucose medium: -12.84%; Mtb cholesterol medium: -3.04%.
For Cc1cccc(Cn2c3c(ccc2=O)CCN(Cc2ccoc2)CC3)n1.O=C(O)C(F)(F)F.O=C(O)C(F)(F)F the result was Mtb glucose medium: 3.16%; Mtb cholesterol medium: -12.49%.
For CCC[C@H]1CN(S(C)(=O)=O)C[C@@H]1NC(=O)COC(C)C the result was Mtb glucose medium: 0.6037%; Mtb cholesterol medium: 21.53%.
For CN1CCC/C1=N\S(=O)(=O)c1ccc(NC(=O)c2cccs2)cc1 the result was Mtb glucose medium: 4.937%; Mtb cholesterol medium: -13.11%.
For Cc1ccc(-c2nnc(CN3CCc4nn(C)c(=O)cc4C3)o2)cc1 the result was Mtb glucose medium: -1.505%; Mtb cholesterol medium: 5.195%.
For CN(Cc1nccn1C)S(=O)(=O)c1cccc(C#N)c1 the result was Mtb glucose medium: -8.115%; Mtb cholesterol medium: -0.0858%.
For Cc1ccc(CN(CCN(C)C)Cc2c(C)nc3sccn23)o1.O=C(O)CC(O)(CC(=O)O)C(=O)O the result was Mtb glucose medium: -0.8094%; Mtb cholesterol medium: -16.05% and 2.229%.
For Cc1nnc(C2Cc3ccccc3CN2Cc2ncc(Cl)n2C)o1 (stereo not given) the result was Mtb glucose medium: -7.323%; Mtb cholesterol medium: -5.903%.
For O=C(NC1CC1)c1cc2c(s1)CCN2C(=O)C1CC1 the result was Mtb glucose medium: 15.85%; Mtb cholesterol medium: 2.302%.
For CC1(Cc2ccc(F)cc2)Cc2cc(C(=O)NCCO)ccc2O1 (stereo not given) the result was Mtb glucose medium: -4.39%; Mtb cholesterol medium: 5.961% and -10.25%.
For CCNS(=O)(=O)c1ccc(C)c(C(=O)N(CCC#N)Cc2ccco2)c1 the result was Mtb glucose medium: 6.467% and -0.6141%; Mtb cholesterol medium: 4.674%.
For Cc1cc(C)n(CCCNC(=O)C2CCCO2)n1 (stereo not given) the result was Mtb glucose medium: 9.887% and 14.65%; Mtb cholesterol medium: 6.12%.
For CN(C)C(=O)CN1CCCC(c2cncc(-c3cccc(Cl)c3)n2)C1 (stereo not given) the result was Mtb glucose medium: 46.81%; Mtb cholesterol medium: 13.92%.
For O=C(O)CCc1ccc(S(=O)(=O)Nc2cnn(CC(F)(F)F)c2)cc1 the result was Mtb glucose medium: -3.839% and 2.359%; Mtb cholesterol medium: 6.632%.
For CCS(=O)(=O)N1CCC2(CCN(C(=O)c3cccs3)CC2)CC1 the result was Mtb glucose medium: 11.71%; Mtb cholesterol medium: -16.77%.
For Cc1cc(C)c2c(N3CCN(CCN4CCOCC4)CC3)ncnc2n1 the result was Mtb glucose medium: -23.13%; Mtb cholesterol medium: -28.43%.
For CCc1nc(CN2CCCC2C(=O)NC)cs1 (stereo not given) the result was Mtb glucose medium: 15.87%; Mtb cholesterol medium: -10.23%.
For Cc1ncsc1C(=O)NCC1CCC2(CCNCC2)CO1.Cl (stereo not given) the result was Mtb glucose medium: -8.865% and 3.812%; Mtb cholesterol medium: 19.3%.
For CN(Cc1cn2c(n1)CN(C(=O)N(C)C)CC2)Cc1ccco1 the result was Mtb glucose medium: -6.341% and 12.14%; Mtb cholesterol medium: -5.548% and -27.96%.
For CC(Cn1ccnc1)NC(=O)N1CCN(Cc2cccs2)CC1 (stereo not given) the result was Mtb glucose medium: 5.792%; Mtb cholesterol medium: -27.5%.
For [H][C@@]12CNC[C@]1([H])CN(C(=O)c1ccc(C)nc1)C2 the result was Mtb glucose medium: -18.31%; Mtb cholesterol medium: 1.091%.
For O=C(CCC1CCN(C(=O)c2cc[nH]c2)CC1)NCc1cccc(Cl)c1 the result was Mtb glucose medium: 13.16%; Mtb cholesterol medium: 2.457%.
For O=C(CCOCc1ccccc1)N1CCCC1c1noc(C2CC2)n1 (stereo not given) the result was Mtb glucose medium: 0.6361%; Mtb cholesterol medium: -12.16%.
For Cc1noc(C2CCC3(CCN(C(=O)C4=CCCCC4)CC3)O2)n1 (stereo not given) the result was Mtb glucose medium: 28.43%; Mtb cholesterol medium: 10.05%.
For O=C(NC1CC1)c1cc2c(nc1O)CC(c1cccs1)CC2=O (stereo not given) the result was Mtb glucose medium: -6.631%; Mtb cholesterol medium: 1.849% and -7.424%.

For reference, 2 entries once more:

| Compound | Mtb glucose medium | Mtb cholesterol medium |
|---|---|---|
| `CC1(Cc2ccc(F)cc2)Cc2cc(C(=O)NCCO)ccc2O1` (stereo not given) | -4.39% | 5.961% and -10.25% |
| `O=C(NC1CC1)c1cc2c(nc1O)CC(c1cccs1)CC2=O` (stereo not given) | -6.631% | 1.849% and -7.424% |